The values that follow come from patent publication US20110151497A1, “METABOLOMIC PROFILING OF PROSTATE CANCER” (THE REGENTS OF THE UNIVERSITY OF MICHIGAN, priority 2009, published 2011).

Data set [1] deals with breast cancer cell lines (MCF7, MDA-MB-231, T470, SKBR3) vs MCF 10A. Nature of the data set: GC-MS validation of polyamines in breast cell lines. In kind it is cell-based.
The nature of data set [2]: GC-MS (SIM) quantification of polyamines in prostate tissues. The arrangement: species or system human. The settings on record: normalized to tissue weight.
Data set [3] in a line: GC-MS quantification of multiple metabolites in biopsy-positive and biopsy-negative urine sediments. On the set-up: species or system human. The settings on record: alanine as internal control.
Data set [4] can be described thus: Metabolomic profiling of urine (GC-MS, UHPLC-MS): less aggressive (GS major 3) vs more aggressive (GS major 4) prostate cancer. On the set-up: species or system human. The conditions noted are these: GS major 4 (N=13) vs GS major 3 (N=45).
Data set [5] can be described thus: Metabolomic profiling of urine (GC-MS, UHPLC-MS): prostate cancer vs biopsy-negative controls. On the set-up: species or system human.
The mark [6] stands for this setting: sarcosine and N-acetyl tyrosine in combination, urine.
Setting [7] is: two markers in combination, assuming 30% prevalence of cancer in a PSA positive population.

On to `NCCCCNCCCN` [spermidine], for which, in data set [1], the “levels in invasive breast cancer cell lines compared to normal cell line (MCF 10A)” value (shortened to “levels … compared to normal cell line (MCF 10A)”) is “elevated levels”. Moreover, the “levels in benign prostate tissues compared to localized and metastatic prostate cancer tissues” value in data set [2] was “elevated levels”.

As to `NCCCCN` [putrescine], the “levels … compared to normal cell line (MCF 10A)” value in data set [1] is “elevated levels”. For the same molecule, in data set [2], the “levels in benign prostate tissues compared to localized and metastatic prostate cancer tissues” value is “elevated levels”.

Take `N[C@@H](CCC(=O)O)C(=O)O` [glutamic acid]: in data set [3], the “metabolite/alanine ratio of biopsy-positive vs biopsy-negative urine sediments” value (shortened to “metabolite/alanine ratio”) is listed as “higher levels”. As for `O=C(O)[C@H](O)[C@@H](O)[C@H](O)[C@H](O)CO` [gluconate], the “% Change in Aggressive PCA” value in data set [4] was found to be 135.4%. As for “dehydroisoandrosterone sulfate [dehydroisoandrosterone sulfate (DHEA-S)]”, the “% change in PCA” value in data set [5] (urine, level in prostate cancer (59) vs biopsy-negative control (51) individuals) is listed as 162.9464%.

Turning to `NCCCNCCCCNCCCN` [spermine], the “levels … compared to normal cell line (MCF 10A)” value in data set [1] is on record as “elevated levels”. Moreover, the “levels in benign prostate tissues compared to localized and metastatic prostate cancer tissues” value in data set [2] was “elevated levels”. Turning to `OC[C@H]1O[C@@H](O[C@H]2[C@H](O)[C@@H](O)C(O)O[C@@H]2CO)[C@H](O)[C@@H](O)[C@H]1O` (stereo partly shown) [lactose], the “% Change in Aggressive PCA” value in data set [4] stood at 108.8%. In the case of `Cn1c(=O)c2c(ncn2C)n(C)c1=O` [caffeine], in data set [4], the “% Change in Aggressive PCA” value is −81.72%. For `CNCC(=O)O` [sarcosine], in data set [5] (setting [6]), the “sensitivity of cancer diagnosis” value turned out to be 83% and the “specificity of cancer diagnosis” value worked out at 49%. In data set [5] (setting [7]), the “Negative Predictive Value (NPV)” value is 87% and the “Positive Predictive Value (PPV)” value is 41%. Also, in data set [3], the “metabolite/alanine ratio” value is on record as “higher levels”. As for `CC(O)C(=O)O` (stereo not shown) [lactate], the “% Change in Aggressive PCA” value in data set [4] is on record as −29.29%. Turning to `CSCC[C@H](N)C(=O)O` [methionine], the “metabolite/alanine ratio” value in data set [3] is “no change”. Turning to `C/C(=C\C(=O)O)C(=O)O` [mesaconate (methylfumarate), mesaconate], in data set [4], the “% Change in Aggressive PCA” value was −48.02%.

As for `NCC(=O)O` [glycine], the “metabolite/alanine ratio” value in data set [3] is given as “higher levels”. `O=C(O)[C@@H](O)[C@@H](O)[C@H](O)[C@@H](O)C(=O)O` [glucarate (saccharate), glucarate]: the “% Change in Aggressive PCA” value in data set [4] stood at 78.74%. For the molecule `O=C(O)/C=C/C(=O)O` [fumarate], the “% Change in Aggressive PCA” value in data set [4] is on record as −27.16%.
